Laboratory results taken from PMC7398064.
Results are given in words; binding and its absence hold for the method and conditions named. Binding seen in cells or lysates may run through a third protein. Here binding means that the protein was enriched with, or labelled near, the bait; the list need not be complete.

By UniProt entry, the sequences of proteins in these tests, tags left out.
UniProt O75340: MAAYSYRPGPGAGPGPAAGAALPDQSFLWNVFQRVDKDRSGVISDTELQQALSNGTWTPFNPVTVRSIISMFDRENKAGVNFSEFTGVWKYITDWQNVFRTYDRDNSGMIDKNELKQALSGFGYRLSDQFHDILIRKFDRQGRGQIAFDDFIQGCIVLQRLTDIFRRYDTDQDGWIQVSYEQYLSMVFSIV

Target: Programmed cell death protein 6 (PDCD6) (human (endogenous in HCT116)) (UniProt O75340)
Assay: affinity purification with mass spectrometry; HCT116 lysate (50 mM Tris-HCl pH 7.4, 100 mM NaCl, 0.5 mM Ca2+, 0.5% NP-40) purified with anti-PDCD6 antibody; SDS-PAGE bands excised, Q Exactive; spectra searched against raf1.fasta from UniProt

c-Raf (Raf-1) (from UniProt P04049 1-648)
binding: binds
